# Laboratory results: article PMC8222926
# Target: T1, endogenous Fe65 (human (endogenous in A549; legend: HEK293T)) (UniProt O00213)
# T1 sequence: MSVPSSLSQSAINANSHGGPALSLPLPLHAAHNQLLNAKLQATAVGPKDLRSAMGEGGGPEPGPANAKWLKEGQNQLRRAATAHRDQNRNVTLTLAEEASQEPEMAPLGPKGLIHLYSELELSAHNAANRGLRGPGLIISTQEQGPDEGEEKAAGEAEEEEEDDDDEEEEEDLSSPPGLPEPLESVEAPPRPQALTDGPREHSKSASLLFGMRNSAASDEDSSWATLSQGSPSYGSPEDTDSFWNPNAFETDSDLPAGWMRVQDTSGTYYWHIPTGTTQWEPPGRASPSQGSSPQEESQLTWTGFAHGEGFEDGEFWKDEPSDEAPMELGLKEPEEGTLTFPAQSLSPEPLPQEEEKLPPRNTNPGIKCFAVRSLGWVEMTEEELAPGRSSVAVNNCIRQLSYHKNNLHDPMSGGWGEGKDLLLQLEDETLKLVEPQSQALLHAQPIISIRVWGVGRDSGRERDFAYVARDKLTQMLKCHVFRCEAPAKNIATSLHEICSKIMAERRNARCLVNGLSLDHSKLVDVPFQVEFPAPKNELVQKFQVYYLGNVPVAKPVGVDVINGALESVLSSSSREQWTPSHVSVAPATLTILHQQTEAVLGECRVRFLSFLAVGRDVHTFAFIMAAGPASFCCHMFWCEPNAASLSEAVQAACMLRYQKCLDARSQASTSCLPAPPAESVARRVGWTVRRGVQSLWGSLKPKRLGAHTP
# Assay: co-IP; endogenous proteins; Fe65 antibody; lysate of A549 cells (text; the legend says HEK293T); 0.25% CHAPSO; protein G magnetic beads; immunoblot
substance,measurement,value
endogenous PP1 (enzyme),binding,binds

# Results are given in words; binding and its absence hold for the method and conditions named. In cells and extracts the contact can be indirect. A result given as binding can be weak or reduced; the word gives no strength.
